Data taken from PubChem BioAssay AID2417 (National Center for Advancing Translational Sciences (NCATS), 2010).
Screen size: about 140,000 compounds; about 4,300 (3.1%) were called active. Inconclusive means that the source gave no clear call. Such entries were picked first, then a sample of the others.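 The calls were made as follows: active = readout at or below -70, meaning at least 70% loss of cells showing the perinucleolar compartment, a nuclear body marking cancer cells; inconclusive = readout between -30 and a set limit; inactive = the rest.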

Assay: High Content Assay for Compounds that inhibit the Assembly of the Perinucleolar Compartment;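 also: plate controls were DMSO wells for no effect and camptothecin positive control wells for full effect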
Settings: PC3M PTB-GFP, PNC prevalence imaging, 16 h; at 10 µM; active compounds read low
Summary of the method: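 Read-out is percentage of cells bearing a perinucleolar compartment, from automated 20x imaging of fixed, Hoechst-stained PC3M PTB-GFP cells. Cells were seeded 4 h, then exposed 16 h to compound (23 nl of library stock) in duplicate plates.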
In the case of `CC(=O)Nc1ccc(C(=O)Nc2ccc(S(=O)(=O)N3CCCC3)cc2)cc1`, the activity change (PNC), negative = inhibition is reported as inconclusive: -43.2%.
In the case of `O=C(NC1CCCC1)C(c1ccccc1)N(Cc1ccco1)C(=O)Cc1cccs1` (stereo not given), the activity change (PNC), negative = inhibition is reported as inconclusive: -55.6%.
For `C=CCn1c(C)cc(C(=O)CSc2nc3ccccc3o2)c1C`, the activity change (PNC), negative = inhibition was inconclusive: -43.2%.
With `CC(C)COC(=O)/C(C#N)=C/c1c[nH]c2ccccc12` the activity change (PNC), negative = inhibition was inconclusive: -51.4%.
For `Cc1nnsc1C(=O)Nc1cc(Cl)ccc1Cl`, the activity change (PNC), negative = inhibition was inactive: -21.1%.
In the case of `COC(=O)c1cn(NC(=O)Cc2cccc(OC)c2)c(=O)c2ccccc12`, the activity change (PNC), negative = inhibition is reported as inconclusive: -66.2%.
With `Cn1nnc2sc3c(c2c1=O)CCCC3` the activity change (PNC), negative = inhibition was inconclusive: -32.5%.
In the case of `Cc1nn(C(C)(C)C)c(OC(=O)c2cccs2)c1S(=O)(=O)c1ccccc1`, the activity change (PNC), negative = inhibition is reported as inactive: 33.9%.
With `CN(C)c1nc(N)nc(Nc2ccccc2C#N)n1` the activity change (PNC), negative = inhibition was inconclusive: -58.1%.
In the case of `O=C(Nc1nnc(-c2ccncc2)s1)C1CCCO1` (stereo not given), the activity change (PNC), negative = inhibition is reported as inconclusive: -32.8%.
In the case of `COc1ccc(OCCCC(=O)N2CCCc3ccccc32)cc1`, the activity change (PNC), negative = inhibition is reported as inconclusive: -38.8%.
For `CC(=O)c1nn(-c2ccccc2)cc1C(=O)c1ccc(Br)cc1`, the activity change (PNC), negative = inhibition was inconclusive: -51.7%.
In the case of `c1ccc(-n2cnnc2SCc2cn3ccsc3n2)cc1`, the activity change (PNC), negative = inhibition is reported as inconclusive: -36.6%.
In the case of `CN(c1ncc(C(F)(F)F)cc1Cl)n1cc(C(=O)O)c2ccccc2c1=O`, the activity change (PNC), negative = inhibition is reported as inactive: -3.92%.
In the case of `Cn1c(=O)c2[nH]c(NCCCN3CCOCC3)nc2n(C)c1=O`, the activity change (PNC), negative = inhibition is reported as inconclusive: -31%.
With `COc1ccc(Cl)cc1NC(=O)CN(C)C(=O)CNC(=O)C12CC3CC(CC(C3)C1)C2` the activity change (PNC), negative = inhibition was inconclusive: -35.1%.
In the case of `COc1ccc(-c2nc3cc(NC(=O)Cc4ccc(OC)c(OC)c4)ccc3o2)cc1`, the activity change (PNC), negative = inhibition is reported as inactive: 9.09%.
In the case of `Cc1cccc(C(=O)N2CCN(c3ccc([N+](=O)[O-])c(N4CCOCC4)c3)CC2)c1`, the activity change (PNC), negative = inhibition is reported as inactive: 31.9%.
In the case of `O=C1CCCN1CCCNS(=O)(=O)c1ccc(Cl)c(C(=O)N2CCOCC2)c1`, the activity change (PNC), negative = inhibition is reported as inconclusive: -37.1%.
With `COc1ccc(-c2csc3nc(C)n(-n4cccc4)c(=O)c23)cc1OC` the activity change (PNC), negative = inhibition was inconclusive: -63.3%.
With `COC(=O)c1ccc(C2C(C(=O)c3cc4ccccc4o3)=C(O)C(=O)N2CCCN(C)C)cc1` (stereo not given) the activity change (PNC), negative = inhibition was inconclusive: -46.8%.
In the case of `COc1cccc(N2CC(C(=O)Nc3c(C)cccc3C)CC2=O)c1` (stereo not given), the activity change (PNC), negative = inhibition is reported as inconclusive: -32.6%.
For `COc1ccc(Nc2ccc(N3C(=O)CCCC3=O)cc2[N+](=O)[O-])cc1OC`, the activity change (PNC), negative = inhibition was inactive: -1.36%.
For `O=C(COc1ccccc1)NC1CCCCC1`, the activity change (PNC), negative = inhibition was inconclusive: -40.3%.
With `Cc1onc(-c2ccccc2)c1C(=O)N/N=C/c1cc2c(cc1Cl)OCO2` the activity change (PNC), negative = inhibition was inconclusive: -52.9%.
